Data published in paper PMC4236683.
No constants are given. Whether binding was seen depends on the method and setting. Some binding calls cover weakened binding; strength is not graded here. Where a sequence is shown, tags or fusion partners need not be part of it.

How the values were obtained:
Assay in all cases: binding of AP-clustered Fc fusion protein to transfected cells; COS7 cells transfected with PlexA or semaphorin constructs, incubated 75 min in OptiMEM with Fc fusion protein preclustered with anti-human IgG conjugated to alkaline phosphatase; rinsed, fixed, developed with NBT/BCIP; only the binder purified
Sema6A = target: T1, Sema6A (UniProt O35464)
T1 sequence: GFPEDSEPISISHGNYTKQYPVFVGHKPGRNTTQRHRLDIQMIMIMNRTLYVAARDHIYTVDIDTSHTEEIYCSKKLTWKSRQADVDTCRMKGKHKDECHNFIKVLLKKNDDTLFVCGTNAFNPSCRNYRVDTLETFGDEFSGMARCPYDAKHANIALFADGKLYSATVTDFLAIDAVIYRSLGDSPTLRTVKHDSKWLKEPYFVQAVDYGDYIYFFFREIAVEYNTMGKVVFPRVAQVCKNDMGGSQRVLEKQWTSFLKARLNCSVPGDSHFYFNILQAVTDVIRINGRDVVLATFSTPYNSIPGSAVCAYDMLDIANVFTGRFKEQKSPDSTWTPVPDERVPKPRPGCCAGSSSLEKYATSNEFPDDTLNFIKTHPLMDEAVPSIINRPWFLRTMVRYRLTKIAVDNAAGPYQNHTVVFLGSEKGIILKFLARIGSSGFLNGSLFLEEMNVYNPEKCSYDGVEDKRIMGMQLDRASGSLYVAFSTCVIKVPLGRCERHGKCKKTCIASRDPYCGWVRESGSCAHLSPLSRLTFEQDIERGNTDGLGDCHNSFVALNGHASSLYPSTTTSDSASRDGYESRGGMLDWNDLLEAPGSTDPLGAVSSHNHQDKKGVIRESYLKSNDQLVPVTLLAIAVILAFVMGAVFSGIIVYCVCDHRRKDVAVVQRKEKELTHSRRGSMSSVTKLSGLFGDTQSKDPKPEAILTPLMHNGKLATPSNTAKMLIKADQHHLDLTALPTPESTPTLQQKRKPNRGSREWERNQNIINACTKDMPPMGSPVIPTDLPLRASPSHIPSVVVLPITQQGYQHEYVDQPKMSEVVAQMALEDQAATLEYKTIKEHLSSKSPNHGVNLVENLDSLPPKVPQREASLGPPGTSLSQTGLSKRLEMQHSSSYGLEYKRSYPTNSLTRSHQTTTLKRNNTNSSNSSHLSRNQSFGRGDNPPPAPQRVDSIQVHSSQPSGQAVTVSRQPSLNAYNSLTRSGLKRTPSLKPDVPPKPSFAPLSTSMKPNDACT

[1] = target: T2, 6xMyc N-terminal-tagged full-length (FL)-Sema5A (rat) (UniProt D3ZTD8)
T2 sequence: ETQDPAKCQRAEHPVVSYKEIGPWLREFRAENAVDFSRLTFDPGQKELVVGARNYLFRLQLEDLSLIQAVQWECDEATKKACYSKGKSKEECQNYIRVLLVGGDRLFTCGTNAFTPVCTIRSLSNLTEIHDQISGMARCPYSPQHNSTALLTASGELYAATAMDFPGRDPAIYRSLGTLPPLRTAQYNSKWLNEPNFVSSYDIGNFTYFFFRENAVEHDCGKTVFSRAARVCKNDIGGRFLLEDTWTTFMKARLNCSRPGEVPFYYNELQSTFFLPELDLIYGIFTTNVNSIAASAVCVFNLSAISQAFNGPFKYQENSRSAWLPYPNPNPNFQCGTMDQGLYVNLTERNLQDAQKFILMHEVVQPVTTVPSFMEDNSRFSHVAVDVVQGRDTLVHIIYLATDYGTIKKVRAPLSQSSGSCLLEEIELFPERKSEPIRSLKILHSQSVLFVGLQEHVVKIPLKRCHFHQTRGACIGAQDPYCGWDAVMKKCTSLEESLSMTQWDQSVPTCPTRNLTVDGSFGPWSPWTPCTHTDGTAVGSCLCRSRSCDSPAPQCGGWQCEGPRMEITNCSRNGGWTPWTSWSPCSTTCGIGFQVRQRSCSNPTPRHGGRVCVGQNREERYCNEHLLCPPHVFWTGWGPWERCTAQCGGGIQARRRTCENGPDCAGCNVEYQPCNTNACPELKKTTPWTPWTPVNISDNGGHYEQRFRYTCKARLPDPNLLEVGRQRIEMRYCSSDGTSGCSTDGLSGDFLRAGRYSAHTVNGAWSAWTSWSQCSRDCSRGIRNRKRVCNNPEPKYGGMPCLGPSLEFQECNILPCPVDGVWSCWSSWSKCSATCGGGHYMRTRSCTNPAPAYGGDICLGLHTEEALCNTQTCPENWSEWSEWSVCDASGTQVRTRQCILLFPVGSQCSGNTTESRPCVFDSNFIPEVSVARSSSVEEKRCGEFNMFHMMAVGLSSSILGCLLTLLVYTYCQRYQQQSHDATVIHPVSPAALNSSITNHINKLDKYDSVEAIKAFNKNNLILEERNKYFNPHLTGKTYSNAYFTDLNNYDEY

[2] = target: T3, membrane-bound Sema5A lacking the seven TSRs (6xMyc-Sema5A^ΔTSR) (rat) (UniProt D3ZTD8)
T3 sequence: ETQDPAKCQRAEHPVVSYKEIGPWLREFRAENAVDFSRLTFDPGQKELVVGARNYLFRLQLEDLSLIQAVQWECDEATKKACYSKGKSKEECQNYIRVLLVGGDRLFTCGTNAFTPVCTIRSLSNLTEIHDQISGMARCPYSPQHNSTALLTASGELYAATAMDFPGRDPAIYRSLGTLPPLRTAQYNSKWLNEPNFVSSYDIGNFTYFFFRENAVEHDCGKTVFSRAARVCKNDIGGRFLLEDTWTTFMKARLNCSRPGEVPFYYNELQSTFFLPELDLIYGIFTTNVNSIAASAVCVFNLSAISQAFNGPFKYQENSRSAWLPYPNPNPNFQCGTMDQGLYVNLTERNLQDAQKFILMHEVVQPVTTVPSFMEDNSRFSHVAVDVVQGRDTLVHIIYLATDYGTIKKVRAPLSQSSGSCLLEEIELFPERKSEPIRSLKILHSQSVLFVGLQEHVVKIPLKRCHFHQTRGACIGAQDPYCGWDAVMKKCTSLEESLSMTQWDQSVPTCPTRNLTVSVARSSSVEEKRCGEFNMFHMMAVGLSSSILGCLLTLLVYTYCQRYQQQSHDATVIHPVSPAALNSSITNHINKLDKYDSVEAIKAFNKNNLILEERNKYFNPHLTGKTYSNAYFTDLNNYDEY

binding (Sema6A): binds
binding [1]: binds
binding [2]: binds
B1: sema domain of PlexA2 fused to Fc (PlexA2^SD-Fc) (Fc fusion, UniProt P70207 35-508)
chain: MPQYSTFHSENRDWTFNHLTVHRRTGAVYVGAINRVYKLTGNLTIQVAHKTGPEEDNKACYPPLIVQPCSEVLTLTNNVNKLLIIDYSENRLLACGSLYQGVCKLLRLDDLFILVEPSHKKEHYLSSVNKTGTMYGVIVRSEGEDGKLFIGTAVDGKQDYFPTLSSRKLPRDPESSAMLDYELHSDFVSSLIKIPSDTLALVSHFDIFYIYGFASGGFVYFLTVQPETPDGMAINSAGDLFYTSRIVRLCKDDPKFHSYVSLPFGCTRAGVEYRLLQAAYLAKPGEALAQAFNISSDEDVLFAIFSKGQKQYHHPPDDSALCAFPIRAINLQIKERLQSCYHGEGNLELNWLLGKDVQCTKAPVPIDDNFCGLDINQPLGGSTPVEGLTLYTTSRDRLTSVASYVYNGYSVVFVGTKSGKLKKIRADGPPHGGVQYEMVSVFKDGSPILRDMAFSINQLYLYVMSERQVTRVPV
